Source: patent US20220282268A1
Results are given in words; binding and its absence hold for the method and conditions named. Some entries that bind do so weakly or less than the wild type.

Amino acid sequences for entries named in this document (tags omitted). A change or cut given only in a name is not applied to a line headed by its entry.
UniProt P00873: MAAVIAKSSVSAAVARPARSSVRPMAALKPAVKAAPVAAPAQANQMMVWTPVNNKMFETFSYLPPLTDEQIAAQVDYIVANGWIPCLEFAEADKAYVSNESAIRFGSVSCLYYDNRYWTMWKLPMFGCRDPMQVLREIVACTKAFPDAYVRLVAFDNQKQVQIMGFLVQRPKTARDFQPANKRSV

B1: EPYC1-α1,2,3: EPYC1 with the α-helices of the first, second and third repeat regions mutated to alanines (protein)
chain: MATISSMRVGAASRVVVSGRVKTVKVAARGSWRESSTATVQASRASSATNRVSPTRSVLPANWAAAAAAARNGNGSSSAASSAPAPARSSSASWRDAAPASSAPARSSSASKKAVTPSRSALPSNWAAAAAAARSSSPAPASSAPAPARSSSASWRDAAPASSAPARSSSSKKAVTPSRSALPSNWAAAAAAARSSSPAPASSAPAPARSSSASWRDAAPASSAPARSSSASKKAVTPSRSALPSNWKQELESLRSNSPAPASSAPAPARSSSASWRDAPASSSSSSADKAGTNPWTGKSKPEIKRTALPADWRKGL
B2: EPYC1-α4: EPYC1 with the α-helix of the fourth repeat region mutated to alanines (protein)
chain: MATISSMRVGAASRVVVSGRVKTVKVAARGSWRESSTATVQASRASSATNRVSPTRSVLPANWRQELESLRNGNGSSSAASSAPAPARSSSASWRDAAPASSAPARSSSASKKAVTPSRSALPSNWKQELESLRSSSPAPASSAPAPARSSSASWRDAAPASSAPARSSSSKKAVTPSRSALPSNWKQELESLRSSSPAPASSAPAPARSSSASWRDAAPASSAPARSSSASKKAVTPSRSALPSNWAAAAAAARSNSPAPASSAPAPARSSSASWRDAPASSSSSSADKAGTNPWTGKSKPEIKRTALPADWRKGL
B3: EPYC1-α3,4: EPYC1 with the α-helices of the third and fourth repeat regions mutated to alanines (protein)
chain: MATISSMRVGAASRVVVSGRVKTVKVAARGSWRESSTATVQASRASSATNRVSPTRSVLPANWRQELESLRNGNGSSSAASSAPAPARSSSASWRDAAPASSAPARSSSASKKAVTPSRSALPSNWKQELESLRSSSPAPASSAPAPARSSSASWRDAAPASSAPARSSSSKKAVTPSRSALPSNWAAAAAAARSSSPAPASSAPAPARSSSASWRDAAPASSAPARSSSASKKAVTPSRSALPSNWAAAAAAARSNSPAPASSAPAPARSSSASWRDAPASSSSSSADKAGTNPWTGKSKPEIKRTALPADWRKGL
B4: EPYC1-α1: EPYC1 with the α-helix of the first repeat region mutated to alanines (protein)
chain: MATISSMRVGAASRVVVSGRVKTVKVAARGSWRESSTATVQASRASSATNRVSPTRSVLPANWAAAAAAARNGNGSSSAASSAPAPARSSSASWRDAAPASSAPARSSSASKKAVTPSRSALPSNWKQELESLRSSSPAPASSAPAPARSSSASWRDAAPASSAPARSSSSKKAVTPSRSALPSNWKQELESLRSSSPAPASSAPAPARSSSASWRDAAPASSAPARSSSASKKAVTPSRSALPSNWKQELESLRSNSPAPASSAPAPARSSSASWRDAPASSSSSSADKAGTNPWTGKSKPEIKRTALPADWRKGL
B5: EPYC1-α1,2: EPYC1 with the α-helices of the first and second repeat regions mutated to alanines (protein)
chain: MATISSMRVGAASRVVVSGRVKTVKVAARGSWRESSTATVQASRASSATNRVSPTRSVLPANWAAAAAAARNGNGSSSAASSAPAPARSSSASWRDAAPASSAPARSSSASKKAVTPSRSALPSNWAAAAAAARSSSPAPASSAPAPARSSSASWRDAAPASSAPARSSSSKKAVTPSRSALPSNWKQELESLRSSSPAPASSAPAPARSSSASWRDAAPASSAPARSSSASKKAVTPSRSALPSNWKQELESLRSNSPAPASSAPAPARSSSASWRDAPASSSSSSADKAGTNPWTGKSKPEIKRTALPADWRKGL
B6: EPYC1 four repeat regions and C-terminus (4reps+C-ter/mEPYC1) (protein)
chain: VSPTRSVLPANWRQELESLRNGNGSSSAASSAPAPARSSSASWRDAAPASSAPARSSSASKKAVTPSRSALPSNWKQELESLRSSSPAPASSAPAPARSSSASWRDAAPASSAPARSSSSKKAVTPSRSALPSNWKQELESLRSSSPAPASSAPAPARSSSASWRDAAPASSAPARSSSASKKAVTPSRSALPSNWKQELESLRSNSPAPASSAPAPARSSSASWRDAPASSSSSSADKAGTNPWTGKSKPEIKRTALPADWRKGL

Target: C. reinhardtii Rubisco small subunit 1 (S1Cr), mature (Chlamydomonas reinhardtii) (UniProt P00873)
Assay: yeast two-hybrid (FIG. 4K)

binding, binds:
B1
B2
B3
B4
B5

Target: C. reinhardtii Rubisco small subunit 1 (S1Cr), mature (Chlamydomonas reinhardtii) (UniProt P00873)
Assay: yeast two-hybrid (FIG. 4J)

binding, binds:
B6
